The record followed here is article doi:10.1101/2023.07.25.550453 (bioRxiv, 2023).

For assay [1], the target named is T1, MYC-ZC3H18-WT (mouse) (mouse) (UniProt Q0P678).
T1 sequence: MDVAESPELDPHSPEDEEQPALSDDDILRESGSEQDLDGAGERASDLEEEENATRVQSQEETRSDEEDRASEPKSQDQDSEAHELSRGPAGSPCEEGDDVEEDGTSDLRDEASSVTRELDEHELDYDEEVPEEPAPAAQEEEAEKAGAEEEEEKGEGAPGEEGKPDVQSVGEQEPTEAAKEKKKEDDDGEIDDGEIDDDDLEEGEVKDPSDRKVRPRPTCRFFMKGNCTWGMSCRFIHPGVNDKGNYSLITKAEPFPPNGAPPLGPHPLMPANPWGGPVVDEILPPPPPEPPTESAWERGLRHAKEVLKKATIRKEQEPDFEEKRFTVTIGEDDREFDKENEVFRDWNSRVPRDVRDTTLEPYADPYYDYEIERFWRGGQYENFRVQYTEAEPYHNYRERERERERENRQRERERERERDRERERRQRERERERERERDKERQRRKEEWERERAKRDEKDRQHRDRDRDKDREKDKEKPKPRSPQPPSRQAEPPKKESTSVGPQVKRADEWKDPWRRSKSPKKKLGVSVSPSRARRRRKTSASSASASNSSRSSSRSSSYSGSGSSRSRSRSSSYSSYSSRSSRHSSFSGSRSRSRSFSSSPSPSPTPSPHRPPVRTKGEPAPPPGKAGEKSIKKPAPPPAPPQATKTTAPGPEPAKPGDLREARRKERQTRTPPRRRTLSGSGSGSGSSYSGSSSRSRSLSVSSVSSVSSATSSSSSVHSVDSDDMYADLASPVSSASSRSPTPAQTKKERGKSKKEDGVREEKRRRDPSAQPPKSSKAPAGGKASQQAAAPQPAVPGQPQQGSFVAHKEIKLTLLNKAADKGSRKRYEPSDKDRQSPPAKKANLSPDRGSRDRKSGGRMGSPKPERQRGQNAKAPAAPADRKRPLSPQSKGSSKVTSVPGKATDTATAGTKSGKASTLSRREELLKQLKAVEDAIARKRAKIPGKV
Put plainly: co-IP.

Assay [2] deals with T2, MYC-ZC3H18-W297E (mouse) (mouse) (UniProt Q0P678).
T2 sequence: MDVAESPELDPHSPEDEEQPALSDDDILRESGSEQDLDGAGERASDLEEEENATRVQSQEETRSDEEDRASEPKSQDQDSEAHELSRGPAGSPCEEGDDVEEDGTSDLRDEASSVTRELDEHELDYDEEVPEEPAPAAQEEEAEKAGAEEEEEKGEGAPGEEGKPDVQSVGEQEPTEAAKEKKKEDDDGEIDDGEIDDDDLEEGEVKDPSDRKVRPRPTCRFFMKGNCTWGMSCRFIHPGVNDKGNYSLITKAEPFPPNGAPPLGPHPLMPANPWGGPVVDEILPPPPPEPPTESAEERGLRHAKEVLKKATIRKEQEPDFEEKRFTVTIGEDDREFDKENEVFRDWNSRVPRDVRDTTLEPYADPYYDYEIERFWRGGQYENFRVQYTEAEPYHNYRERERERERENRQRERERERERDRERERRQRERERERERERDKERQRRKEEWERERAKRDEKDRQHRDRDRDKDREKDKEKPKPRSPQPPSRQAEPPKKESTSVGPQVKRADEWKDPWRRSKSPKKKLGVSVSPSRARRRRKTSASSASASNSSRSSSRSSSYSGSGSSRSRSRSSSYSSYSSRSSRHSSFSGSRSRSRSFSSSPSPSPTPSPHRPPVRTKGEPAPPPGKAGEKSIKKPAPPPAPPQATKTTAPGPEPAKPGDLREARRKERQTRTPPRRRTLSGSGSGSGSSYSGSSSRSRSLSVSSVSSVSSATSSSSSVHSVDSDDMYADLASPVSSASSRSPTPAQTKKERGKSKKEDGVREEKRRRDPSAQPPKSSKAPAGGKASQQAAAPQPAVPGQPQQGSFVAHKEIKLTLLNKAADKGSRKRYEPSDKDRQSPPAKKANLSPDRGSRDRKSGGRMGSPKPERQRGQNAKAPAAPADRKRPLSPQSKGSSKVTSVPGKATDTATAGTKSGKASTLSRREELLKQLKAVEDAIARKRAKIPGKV
Description: co-IP.

In assay [3] the target is T3, His-MBP-NCBP3^1-320 (human) (UniProt Q53F19).
T3 sequence: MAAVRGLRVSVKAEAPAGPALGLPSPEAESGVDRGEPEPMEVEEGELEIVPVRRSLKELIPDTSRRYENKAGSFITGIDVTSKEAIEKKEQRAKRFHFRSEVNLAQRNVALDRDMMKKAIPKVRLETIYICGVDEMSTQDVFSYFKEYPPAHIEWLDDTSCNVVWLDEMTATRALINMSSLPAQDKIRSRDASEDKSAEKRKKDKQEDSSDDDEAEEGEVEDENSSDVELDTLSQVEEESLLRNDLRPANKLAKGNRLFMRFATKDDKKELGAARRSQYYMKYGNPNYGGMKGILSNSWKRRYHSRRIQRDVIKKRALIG
Description: pull-down.

For assay [4], the target named is T4, MYC-ZC3H18-ARMmut (mouse) (mouse) (UniProt Q0P678).
T4 sequence: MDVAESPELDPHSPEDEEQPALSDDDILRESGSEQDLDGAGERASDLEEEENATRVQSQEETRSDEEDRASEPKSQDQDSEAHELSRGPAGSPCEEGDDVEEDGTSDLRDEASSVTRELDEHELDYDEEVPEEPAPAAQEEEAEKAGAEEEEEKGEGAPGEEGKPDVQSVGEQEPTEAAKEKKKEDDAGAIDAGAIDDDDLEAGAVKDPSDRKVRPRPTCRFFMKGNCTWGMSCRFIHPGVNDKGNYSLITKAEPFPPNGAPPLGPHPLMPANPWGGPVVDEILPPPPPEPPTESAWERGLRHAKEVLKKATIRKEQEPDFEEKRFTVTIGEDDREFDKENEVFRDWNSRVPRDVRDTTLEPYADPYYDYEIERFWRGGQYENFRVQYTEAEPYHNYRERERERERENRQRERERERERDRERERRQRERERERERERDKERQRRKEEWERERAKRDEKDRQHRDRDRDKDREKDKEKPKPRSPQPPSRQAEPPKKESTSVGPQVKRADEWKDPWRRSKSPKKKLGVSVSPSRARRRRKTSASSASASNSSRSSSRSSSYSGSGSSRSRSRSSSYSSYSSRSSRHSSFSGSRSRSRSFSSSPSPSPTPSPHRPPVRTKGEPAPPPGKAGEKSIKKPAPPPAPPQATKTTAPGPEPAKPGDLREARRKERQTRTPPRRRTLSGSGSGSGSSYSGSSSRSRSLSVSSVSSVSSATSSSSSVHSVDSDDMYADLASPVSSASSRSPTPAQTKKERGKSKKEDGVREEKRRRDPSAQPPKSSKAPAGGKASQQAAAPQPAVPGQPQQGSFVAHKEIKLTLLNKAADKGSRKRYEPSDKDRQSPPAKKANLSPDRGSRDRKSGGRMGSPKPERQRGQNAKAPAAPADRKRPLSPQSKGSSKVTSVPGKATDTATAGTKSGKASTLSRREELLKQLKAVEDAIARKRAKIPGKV
Description: co-IP.

These are yes or no findings as the source states them, for the method shown. For some assays here: In cells and extracts the contact can be indirect. Some results given as binding are weak or reduced against the parent protein; the word gives no strength. Where a sequence is shown, tags or fusion partners need not be part of it.

B1: ARS2 (mouse, endogenous) (protein, UniProt Q99MR6 1-875)
chain: MGDSDDEYDRRRRDKFRRERSDYDRSRERDERRRGDDWNDREWDRGRERRSRGEYRDYDRNRRERFSPPRHELSPPQKRMRRDWDEHSSDPYHSGYDMPYAGGGGGPTYGPPQPWGHPDVHIMQHHVLPIQARLGSIAEIDLGVPPPIMKSFKEFLLSLDDSVDETEAVKRYNDYKLDFRRQQMQDFFLAHKDEEWFRSKYHPDEVGKRRQEARGALQNRLKVFLSLMESGWFDNLLLDIDKADAIVKMLDAAVIKMEGGTENDLRILEQEEEEEQAGKTGEASKKEEARAGPALGEGERKANDKDEKKEDGKQAENDSSNDDKTKKSEGDGDKEEKKEEAEKEAKKSKKRNRKQSGDDSFDEGSVSESESESEGGQAEEEKEEAEEALKEKEKPKEEEKEKPKDAAGLECKPRPLHKTCSLFMRNIAPNISRAEIISLCKRYPGFMRVALSEPQPERRFFRRGWVTFDRSVNIKEICWNLQNIRLRECELSPGVNRDLTRRVRNINGITQHKQIVRNDIKLAAKLIHTLDDRTQLWASEPGTPPVPTSLPSQNPILKNITDYLIEEVSAEEEELLGSSGGPPPEEPPKEGNPAEINVERDEKLIKVLDKLLLYLRIVHSLDYYNTCEYPNEDEMPNRCGIIHVRGPMPPNRISHGEVLEWQKTFEEKLTPLLSVRESLSEEEAQKMGRKDPEQEVEKFVTSNTQELGKDKWLCPLSGKKFKGPEFVRKHIFNKHAEKIEEVKKEVAFFNNFLTDAKRPALPEIKPAQPPGPAQILPPGLTPGLPYPHQTPQGLMPYGQPRPPILGYGAGAVRPAVPTGGPPYPHAPYGAGRGNYDAFRGQGGYPGKPRNRMVRGDPRAIVEYRDLDAPDDVDFF
As for B1, the binding entry in assay [1] and in assay [2] was “binds” each time.

B2: nuclear cap-binding complex (CBC: CBP80ΔNLS + CBP20), human (complex, UniProt Q09161 20-790; P52298 1-156)
chain 1: KTSDANETEDHLESLICKVGEKSACSLESNLEGLAGVLEADLPNYKSKILRLLCTVARLLPEKLTIYTTLVGLLNARNYNFGGEFVEAMIRQLKESLKANNYNEAVYLVRFLSDLVNCHVIAAPSMVAMFENFVSVTQEEDVPQVRRDWYVYAFLSSLPWVGKELYEKKDAEMDRIFANTESYLKRRQKTHVPMLQVWTADKPHPQEEYLDCLWAQIQKLKKDRWQERHILRPYLAFDSILCEALQHNLPPFTPPPHTEDSVYPMPRVIFRMFDYTDDPEGPVMPGSHSVERFVIEENLHCIIKSHWKERKTCAAQLVSYPGKNKIPLNYHIVEVIFAELFQLPAPPHIDVMYTTLLIELCKLQPGSLPQVLAQATEMLYMRLDTMNTTCVDRFINWFSHHLSNFQFRWSWEDWSDCLSQDPESPKPKFVREVLEKCMRLSYHQRILDIVPPTFSALCPANPTCIYKYGDESSNSLPGHSVALCLAVAFKSKATNDEIFSILKDVPNPNQDDDDDEGFSFNPLKIEVFVQTLLHLAAKSFSHSFSALAKFHEVFKTLAESDEGKLHVLRVMFEVWRNHPQMIAVLVDKMIRTQIVDCAAVANWIFSSELSRDFTRLFVWEILHSTIRKMNKHVLKIQKELEEAKEKLARQHKRRSDDDDRSSDRKDGVLEEQIERLQEKVESAQSEQKNLFLVIFQRFIMILTEHLVRCETDGTSVLTPWYKNCIERLQQIFLQHHQIIQQYMVTLENLLFTAELDPHILAVFQQFCALQA
chain 2: MSGGLLKALRSDSYVELSQYRDQHFRGDNEEQEKLLKKSCTLYVGNLSFYTTEEQIYELFSKSGDIKKIIMGLDKMKKTACGFCFVEYYSRADAENAMRYINGTRLDDRIIRTDWDAGFKEGRQYGRGRSGGQVRDEYRQDYDAGRGGYGKLAQNQ
In the case of B2, the binding result in assay [3] is recorded as “no binding”.

B3: ZCCHC8 (mouse, endogenous) (protein, UniProt Q9CYA6 1-709)
chain: MAAGVDFGDLELFEAFDPPEESTPKPVHTRFKDDEEEEDDDDDENGVGDAELQEQLRRCEATIEQLRAENQELKRKLNILTRPSGILVSNTKIDGPLLQILFMNNAISKQYHQEIEEFVSNLVKRFEEQQKNDVEKTSFSLLPQPSSVMLEEDHKVEESCAVKNNKEAFSVVGSVLYFTNFCLDKLGQPLLNENPQLTEGWEIPKYQQVFSHIVPLEGQEMQVKAKRPKPHCFNCGSEEHQMKECPMPRNAARISEKRKEYMDACGEASGQSFQQRYHAEEVEERFGRFKPGVISEELQDALGVTDKSLPPFIYRMRQLGYPPGWLKEAELENSGLALYDGNDDADGETETGEIQNKNVTYDLSKLVNYPGFNISTPRGIPDEWRMFGSIPMQACQQKDVFASYLNSNIQSPSMRSSGKRSSSQSSPNSPKKQRKEGSAAASPADMELDSDVEIPPGSQSSKAFQFQPPLPPGTPPPLPQGTPPPLFTPPLPKGTPPLTPSDSPQARPAASAMDEDALTLEELEEQQRQIWAALQQAEGGNGDSDVPGDTPLTGNSVASSPCPNEFDLPVPEGKALEKPVLAEPQEPAASVDTAGPEPSCSPAAGAAVLSQREEEAAAEGGPGDALLDNGGVLNMNMSNGSNQQPIHPDSRPPMAPKTHSPVPDMSKFATGITPFEFENMAESTGMYLRIRNLLKNSPRNQQKNKKTCE
Consider B3, for which the binding result in assay [4] and in assay [1] was “binds” in each case.
